Measurements reported in PubChem BioAssay AID1259254 (NCATS, 2017)
The deposit covers about 59,000 reagents; this is a part drawn at random. About 1,550 of all reagents (2.6%) count as active. 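G2 share is only a proxy for re-replication; each gene was hit by three separate siRNAs, and active genes were retested.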 Raw values vary from plate to plate and are shown uncorrected. Reagents against one gene are numbered here. Not given: the amount of reagent.

- Screen: 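Finding genes that stop cells copying their DNA twice in one cycle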 (primary screen)
- System: human HCT116 colorectal cancer cells
- Reagent: single siRNA against human genes
- Time to read-out: 3 days
- Measured: 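Nuclei stained with Hoechst and imaged; cell-cycle phase assigned by DNA content; G2 share scaled per plate, non-targeting siRNA 0%, GMNN siRNA 100%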
- Scale: G2 robust z-score and G2 cells, % of GMNN control: higher = more G2 cells, more excess DNA replication; raw share of cells in G2: higher = larger share of cells with G2 DNA content
- Call rule: 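An siRNA counts as active if its G2 robust z-score lies at least 5 MADs above the screen median; here such calls match roughly 38% of GMNN control or more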

The opening 2 entries as a preview:
| G2 robust z-score | G2 cells, % of GMNN control | raw share of cells in G2 (%) | call | gene | reagent no. |
| --- | --- | --- | --- | --- | --- |
| 0.44 | 6.07 | 6.07 | inactive | EFCAB5 | 1 |
| 2.4 | 19.9 | 11.9 | inactive | EFCAB5 | 2 |

The list itself, repeating the preview:
| G2 robust z-score | G2 cells, % of GMNN control | raw share of cells in G2 (%) | call | gene | reagent no. |
| --- | --- | --- | --- | --- | --- |
| 0.44 | 6.07 | 6.07 | inactive | EFCAB5 | 1 |
| 2.4 | 19.9 | 11.9 | inactive | EFCAB5 | 2 |
| -0.368 | 0.377 | 4.34 | inactive | EFCAB5 | 3 |
| -1.01 | -4.15 | 2.67 | inactive | CREBBP | 1 |
| 1 | 10 | 8.65 | inactive | CREBBP | 2 |
| -0.684 | -1.84 | 4.3 | inactive | CREBBP | 3 |
| 0.634 | 7.43 | 8.92 | inactive | TMED10 | 1 |
| 1.17 | 11.2 | 10.9 | inactive | TMED10 | 2 |
| 1.41 | 12.9 | 8.01 | inactive | TMED10 | 3 |
| -0.0757 | 2.43 | 3.65 | inactive | DNAJC30 | 1 |
| 0.293 | 5.03 | 8.18 | inactive | DNAJC30 | 2 |
| -0.312 | 0.772 | 3.88 | inactive | DNAJC30 | 3 |
| 0.589 | 7.11 | 7.88 | inactive | KCND1 | 1 |
| -0.412 | 0.0705 | 4.81 | inactive | KCND1 | 2 |
| -1.13 | -5.01 | 2.42 | inactive | KCND1 | 3 |
| 2.87 | 23.2 | 15.7 | inactive | WWP1 | 1 |
| 2.88 | 23.2 | 11.8 | inactive | WWP1 | 2 |
| -1.29 | -6.13 | 2.1 | inactive | WWP1 | 3 |
| 2.46 | 20.3 | 10 | inactive | ECSCR | 1 |
| 0.771 | 8.39 | 6.86 | inactive | ECSCR | 2 |
| 0.071 | 3.47 | 4.73 | inactive | ECSCR | 3 |
| -1.04 | -4.37 | 3.75 | inactive | ZNF76 | 1 |
| 3.4 | 26.9 | 13.3 | inactive | ZNF76 | 2 |
| 0.744 | 8.2 | 7.32 | inactive | ZNF76 | 3 |
| 3.41 | 26.9 | 13.9 | inactive | MAPKAP1 | 1 |
| 1.03 | 10.2 | 7.93 | inactive | MAPKAP1 | 2 |
| -0.0554 | 2.58 | 6.71 | inactive | MAPKAP1 | 3 |
| 1.93 | 16.6 | 9.7 | inactive | LOC442132 | 1 |
| 0.657 | 7.59 | 5.7 | inactive | LOC442132 | 2 |
| 0.176 | 4.21 | 5.25 | inactive | LOC442132 | 3 |
